Test results published in patent US20220087962A1, “COMPOSITIONS AND METHODS FOR TREATING AGE-RELATED DISEASES OR CONDITIONS” (Arizona Board of Regents on Behalf of the University of …, priority 2019, published 2022).

Experiment: Direct interaction of 3HAA with H2O2 in vitro
Settings: 3HAA media for oxidative stress assays
Text: Superoxide dismutases degrade cellular superoxide to oxygen and H2O2.

## Nc1c(O)cccc1C(=O)O [3HAA, 3-hydroxyanthranilic acid]
  red coloration of 3HAA media after addition of H2O2: substantially diminished the red coloration; also recorded: H2O2 visibly reduces 3HAA in media

“Also recorded” adds a separate entry of the source.
